PubChem BioAssay AID1259298 | Sanger Institute, 2017
This is one part, drawn at random, of 794 reagents. Over the whole deposit, 20 (2.5%) were called active. 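Calls rest only on the knock-down-alone score; drug synergy scores played no part in them.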 Entries without a mark were called inactive. Viability is capped at 1. Not given: the amount of reagent, the time to read-out.

Screen: 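Kinases whose loss strengthens killing by BYL719, cetuximab or trametinib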 (primary screen)
Cell system: HT55 human colorectal cancer cell line
Reagents: siRNA pool against human genes
Treatment: anchor drug BYL719 1 µM, cetuximab 5 µg/ml or trametinib 10 nM, or DMSO vehicle alone
Read-out: 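Replicate-averaged viability versus wells of non-targeting pool; knock-down-only robust z-score; per-drug synergy score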
Scale: robust z-score, knock-down alone: higher = more cells remaining; low means essential gene; viability vs control pool, no drug: higher = more viable cells; synergy score with BYL719 and synergy score with cetuximab and synergy score with trametinib: higher = stronger synthetic lethality with the drug
Hit rule: 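Essential when the robust z-score for knock-down alone with DMSO is below -3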
Meaning of the calls: active = essential (knock-down alone); inactive = no change alone

no.	target	PubChem SID	robust z-score, knock-down alone	viability vs control pool, no drug (fraction)	synergy score with BYL719	synergy score with cetuximab	synergy score with trametinib
1	PRKG1	SID152152064	0.36	0.983	-0.181	0.0141	0.1
2	MAPKAPK2	SID56478668	-3.71 (active)	0.665	-0.102	-0.134	-0.0633
3	INSR	SID152149459	0.58	1	-0.149	-0.211	-0.126
4	IRAK2	SID152151590	0.58	1	-0.216	-0.00509	-0.151
5	FYN	SID135620621	0.136	0.965	-0.083	0.00928	0.0106
6	AK5	SID56478914	0.337	0.981	-0.145	-0.0837	0.176
7	TPK1	SID135621256	0.58	1	-0.0265	-0.204	0.0185
8	NR4A2	SID134309878	-1.51	0.837	-0.0104	-0.114	-0.0636
9	PI4KB	SID135621252	0.58	1	-0.272	-0.193	-0.148
10	PIK3C2A	SID152154179	0.365	0.983	0.0288	0.168	0.114
11	DTYMK	SID135621237	0.58	1	-0.172	-0.202	-0.0646
12	MYLK4	SID152150692	0.58	1	-0.115	-0.211	-0.0996
13	MAP3K2	SID135620706	-1.82	0.812	-0.171	-0.00234	0.00721
14	PINK1	SID152149500	0.58	1	-0.04	0.0189	0.138
15	PANK2	SID152147442	-0.753	0.896	-0.27	-0.143	-0.0932
16	ACVRL1	SID152155046	0.58	1	-0.224	-0.19	-0.12
17	STYK1	SID56478493	0.58	1	-0.24	-0.152	0.0965
18	EIF2AK3	SID152151333	0.366	0.983	-0.102	-0.146	-0.0421
19	DCK	SID56479088	-1.46	0.84	-0.0779	0.0647	-0.00638
20	MAP4K5	SID56478702	-1.85	0.81	-0.206	-0.0977	-0.0954
21	MAP3K4	SID152151893	-0.0599	0.95	-0.173	-0.0661	0.00801
22	SGK1	SID152156682	0.39	0.985	-0.105	-0.172	0.0259
23	EPHA1	SID152153474	0.58	1	-0.137	-0.211	-0.0067
24	MAGI3	SID152154544	0.58	1	-0.225	-0.211	-0.066
25	CKMT2	SID152154085	0.58	1	-0.179	-0.091	0.00792
26	KALRN	SID134314670	0.58	1	-0.237	-0.116	0.0867
27	MAP3K11	SID152156459	0.58	1	-0.114	-0.211	-0.04
28	CDK1	SID56478584	0.58	1	-0.272	-0.211	-0.237
29	CDK9	SID152156235	0.58	1	-0.272	-0.211	0.029
30	CAMK2D	SID56478759	0.58	1	-0.229	-0.211	-0.119
31	PRKAR2B	SID56479179	-4.54 (active)	0.599	-0.107	0.057	0.0541
32	SHPK	SID135621260	0.58	1	0.0335	-0.0846	-0.0488
33	MAP2K1	SID56478687	0.58	1	-0.185	-0.15	0.00651
34	GRK1	SID152156219	0.58	1	-0.246	-0.211	-0.368
35	TP53BP1	SID134309949	0.58	1	-0.272	-0.112	-0.034
36	NEK11	SID152147168	-0.501	0.915	-0.334	-0.101	0.0165
37	PAK3	SID56478716	0.18	0.969	-0.0584	-0.0209	0.0777
38	RPS6KA5	SID135620863	-1.25	0.857	-0.125	-0.0106	0.0459
39	PACSIN1	SID56479194	-0.379	0.925	-0.19	-0.0501	0.166
40	IKBKB	SID152150353	0.58	1	-0.262	0.0288	-0.156
41	MED12	SID152147641	0.563	0.999	-0.0984	-0.000285	-0.0207
42	KDR	SID56478526	0.58	1	-0.0842	-0.0991	0.00583
43	TSSK1B	SID56478967	0.575	1	-0.167	-0.0202	0.0578
44	TP53RK	SID135620611	0.58	1	-0.145	-0.211	-0.15
45	CAMKK2	SID135620895	0.58	1	-0.159	-0.0199	-0.0563
46	EPHA2	SID135620614	0.58	1	-0.272	-0.211	-0.213
47	ARID1A	SID152147093	-1.74	0.819	-0.266	-0.0386	-0.015
48	MAST4	SID135625002	0.58	1	-0.0762	-0.211	-0.0788
49	PTK2	SID56478542	-1.62	0.828	-0.14	-0.0556	0.00206
50	TBCK	SID56479023	0.58	1	-0.258	-0.0885	0.0486

Part of the list above, reduced to “synergy score with BYL719”.
MAP3K4 [SID152151893]: -0.173
SGK1 [SID152156682]: -0.105
EPHA1 [SID152153474]: -0.137
MAGI3 [SID152154544]: -0.225
CKMT2 [SID152154085]: -0.179
